Values of other authors as cited in publication PMC6402191 (Clinical and Translational Science, 2017).

Settings: cited from earlier work

For `NS(=O)(=O)c1cc(C(=O)O)c(NCc2ccco2)cc1Cl` [furosemide], the “increase of AUC by probenecid” value is listed as 2.6 fold.
